Some results were stated once for a whole list of compounds, not compound by compound.
Tested on: MHC class I expression on COLO 205 cells
Experiment: MHC class I expression on COLO 205 cells, 24 hours, flow cytometry (W6/32)
Details: COLO 205, 40 μM, relative to non-treated COLO 205 cells
Protocol: FIG. 2A-2F. […] Cells were treated for 24 hours and cell surface MHC class I expression was measured by flow cytometry.
Cannabigerol was also tested for its capacity to induce MHC class I expression in a human colorectal carcinoma cell line, COLO 205. The cells were treated with either 25 μM or 50 μM cannabigerol for 24 hours. Fluorophor (Alexa Fluor 488)-conjugated W6/32 antibody (Thermo Fisher) was used in a flow cytometry assay to quantitate MHC class I expression. […] Cannabigerol is only one of many cannabinoid-like molecules with potential biopharmaceutical activity. […] COLO 205 cells were treated with up to 40 μM of the cannabinoids 1-5 presented in Tables 1 and 2 and evaluated for cell surface MHC class I expression as described above for cannabigerol.

CCCCCc1cc(O)c2c(c1)OC(C)(CCC=C(C)C)C=C2 (stereo not drawn) [Example 3, 2-methyl-2-(4-methyl-3-penten-1-yl)-7-pentyl-2H-1-benzopyran-5-ol]
increase in MHC class I expression: ≥ 2 fold

CCCCCc1cc(O)c2c(c1)OC(C)(C)c1ccc(C)cc1-2 [Example 4, 6,6,9-trimethyl-3-pentyl-6H-dibenzo[b,d]pyran-1-ol]
increase in MHC class I expression: ≥ 2 fold

CCCc1cc(O)c2c(c1)OC(C)(C)[C@@H]1CCC(C)=C[C@@H]21 [Example 5, 6aR,7,8,10aR-tetrahydro-6,6,9-trimethyl-3-propyl-6H-dibenzo[b,d]pyran-1-ol]
increase in MHC class I expression: ≥ 2 fold
